From PMC5309860 (2017)
No constants are given. Whether binding was seen depends on the method and setting. Binding seen in cells or lysates may run through a third protein. Some results given as binding are weak or reduced against the parent protein; the word gives no strength. For some of these results: Sequences can lack the tags named with a protein.

The chains behind the UniProt entries cited, without tags or fusion partners.
UniProt P25095: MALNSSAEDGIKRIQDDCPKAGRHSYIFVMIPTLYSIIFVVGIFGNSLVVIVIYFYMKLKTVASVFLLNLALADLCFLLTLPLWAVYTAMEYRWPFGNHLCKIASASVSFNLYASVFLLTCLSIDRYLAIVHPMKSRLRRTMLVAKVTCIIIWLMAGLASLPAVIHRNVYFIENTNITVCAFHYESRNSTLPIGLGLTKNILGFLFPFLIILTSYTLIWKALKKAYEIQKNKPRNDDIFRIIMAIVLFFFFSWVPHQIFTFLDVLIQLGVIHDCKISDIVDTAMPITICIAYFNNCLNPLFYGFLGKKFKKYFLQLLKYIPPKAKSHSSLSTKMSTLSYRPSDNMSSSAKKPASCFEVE
UniProt P49407: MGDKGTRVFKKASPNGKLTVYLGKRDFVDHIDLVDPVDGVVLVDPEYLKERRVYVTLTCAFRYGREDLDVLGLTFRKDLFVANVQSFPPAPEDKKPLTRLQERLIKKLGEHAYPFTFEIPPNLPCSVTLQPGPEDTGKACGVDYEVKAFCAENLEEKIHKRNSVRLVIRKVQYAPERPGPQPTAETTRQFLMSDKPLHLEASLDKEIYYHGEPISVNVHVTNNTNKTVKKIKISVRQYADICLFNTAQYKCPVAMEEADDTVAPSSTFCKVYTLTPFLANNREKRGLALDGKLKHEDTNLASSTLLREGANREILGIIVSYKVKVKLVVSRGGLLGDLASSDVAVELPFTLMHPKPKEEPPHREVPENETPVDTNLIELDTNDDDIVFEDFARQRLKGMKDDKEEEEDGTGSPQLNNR

Assays:
Test in all cases: co-IP; HEK293 cells co-transfected with Flag-AT1R-cherry, TRPC3-GFP (WT/truncations) and HA-β-arrestin-1 (WT/truncations/mutants); starved 12 h, stimulated 1 min with AngII (100 nM), TRV120055 (30 nM) or TRV120027 (100 nM); lysates precipitated with antibody-conjugated beads overnight at 4 °C, western …
[1] = molecular target: T1, TRPC3-GFP 334–848 (UniProt Q13507)
T1 sequence: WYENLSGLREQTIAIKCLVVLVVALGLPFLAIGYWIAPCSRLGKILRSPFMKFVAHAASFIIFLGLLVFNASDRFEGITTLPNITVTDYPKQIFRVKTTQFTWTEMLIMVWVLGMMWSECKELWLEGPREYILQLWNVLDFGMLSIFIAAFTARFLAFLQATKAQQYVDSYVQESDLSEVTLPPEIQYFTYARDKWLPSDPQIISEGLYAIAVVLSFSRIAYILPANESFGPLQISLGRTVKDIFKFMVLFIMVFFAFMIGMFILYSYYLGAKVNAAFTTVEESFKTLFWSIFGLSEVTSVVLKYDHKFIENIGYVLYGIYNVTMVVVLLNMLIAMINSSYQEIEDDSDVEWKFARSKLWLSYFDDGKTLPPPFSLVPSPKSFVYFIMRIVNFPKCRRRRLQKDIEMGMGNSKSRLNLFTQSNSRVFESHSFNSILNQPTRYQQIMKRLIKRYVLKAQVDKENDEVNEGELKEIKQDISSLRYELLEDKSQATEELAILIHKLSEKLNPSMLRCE

[2] = molecular target: Flag-AT1R-cherry (UniProt P25095)
[3] = molecular target: T2, TRPC3-GFP 1–759 (UniProt Q13507)
T2 sequence: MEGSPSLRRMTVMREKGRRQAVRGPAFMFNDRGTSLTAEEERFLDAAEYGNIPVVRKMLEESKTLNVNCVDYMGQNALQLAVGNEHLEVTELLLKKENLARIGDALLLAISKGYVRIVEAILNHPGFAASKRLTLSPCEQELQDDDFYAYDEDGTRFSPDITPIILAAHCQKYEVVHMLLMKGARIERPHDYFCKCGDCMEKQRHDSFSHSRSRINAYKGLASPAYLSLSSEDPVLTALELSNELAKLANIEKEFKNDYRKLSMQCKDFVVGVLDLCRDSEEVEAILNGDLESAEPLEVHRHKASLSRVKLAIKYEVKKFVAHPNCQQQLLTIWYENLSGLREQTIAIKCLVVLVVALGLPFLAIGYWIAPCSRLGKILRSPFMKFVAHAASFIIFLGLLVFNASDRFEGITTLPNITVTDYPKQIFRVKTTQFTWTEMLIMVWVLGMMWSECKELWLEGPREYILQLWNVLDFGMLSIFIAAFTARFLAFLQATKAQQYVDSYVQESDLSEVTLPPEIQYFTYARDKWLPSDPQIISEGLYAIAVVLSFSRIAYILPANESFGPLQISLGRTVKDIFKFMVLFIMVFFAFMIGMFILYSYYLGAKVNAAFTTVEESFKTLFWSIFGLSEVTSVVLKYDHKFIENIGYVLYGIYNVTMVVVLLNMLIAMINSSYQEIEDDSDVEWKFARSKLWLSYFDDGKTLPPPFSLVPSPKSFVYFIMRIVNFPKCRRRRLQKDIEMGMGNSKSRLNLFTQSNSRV

[4] = molecular target: T3, TRPC3-GFP 73–848 (UniProt Q13507)
T3 sequence: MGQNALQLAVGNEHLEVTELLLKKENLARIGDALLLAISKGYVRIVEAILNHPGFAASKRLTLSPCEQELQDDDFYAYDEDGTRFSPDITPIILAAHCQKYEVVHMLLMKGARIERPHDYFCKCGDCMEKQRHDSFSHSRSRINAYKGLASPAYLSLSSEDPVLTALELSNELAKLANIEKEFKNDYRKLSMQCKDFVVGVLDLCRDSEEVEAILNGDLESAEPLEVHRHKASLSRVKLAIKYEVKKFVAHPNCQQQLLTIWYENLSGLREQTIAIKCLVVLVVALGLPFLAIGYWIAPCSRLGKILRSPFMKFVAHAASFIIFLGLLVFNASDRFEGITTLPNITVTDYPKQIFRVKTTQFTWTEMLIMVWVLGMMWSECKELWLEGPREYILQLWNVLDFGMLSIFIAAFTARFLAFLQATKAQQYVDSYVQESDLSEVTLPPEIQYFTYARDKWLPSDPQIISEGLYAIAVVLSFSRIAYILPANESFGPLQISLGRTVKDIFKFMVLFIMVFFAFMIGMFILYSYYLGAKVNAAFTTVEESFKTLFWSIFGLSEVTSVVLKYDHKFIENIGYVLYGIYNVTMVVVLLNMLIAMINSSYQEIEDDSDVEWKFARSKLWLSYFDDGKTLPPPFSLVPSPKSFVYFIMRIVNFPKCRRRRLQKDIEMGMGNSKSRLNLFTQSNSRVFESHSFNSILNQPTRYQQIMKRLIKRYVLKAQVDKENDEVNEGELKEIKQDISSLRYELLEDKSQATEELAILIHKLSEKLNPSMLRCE

binding [1]: binds
binding [2]: binds
binding [3]: no binding
binding [4]: binds
Substance: HA-β-arrestin-1 (wild type) (from UniProt P49407 1-418)
